Source: PubChem BioAssay AID504834 (National Center for Advancing Translational Sciences (NCATS), 2011)
Hit rate of the full screen: of about 320,000 compounds, about 22,000 (6.9%) were called active. Inconclusive results, whose numbers are uncertain, are shown with a selection of clear calls. Calls come from the whole dose curve; as a rule, active = well fitted inhibition curve with a large enough effect; inconclusive = small, poorly fitted or top-dose-only effect, or another doubt; inactive = no such curve, though single readings can be large or run the other way. Potencies beside an inconclusive call are fits to weak or partial responses and may not hold up.

Assay: Primary qHTS for delayed death inhibitors of the malarial parasite plastid, 96 hour incubation
Conditions: P. falciparum luciferase reporter growth; series mostly up to 28.7 µM
Summary of the method: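 96 h incubation, 37 C, 5% CO2, of luciferase-reporter P. falciparum-infected RBCs (2% hematocrit, 0.05% parasitemia final) with test compounds; endpoint luminescence.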
Potency is the fitted concentration of half-maximal effect.

SMILES | Potency
Cc1nnsc1C(=O)N1CCCC(N2CCN(c3ccc(F)cc3)CC2)C1 (stereo not drawn) | inactive
Cn1c(/N=C/c2c[nH]c3ccccc23)nc2ccccc21 | inactive
COc1ccc(C2CCCN2C(=S)Nc2cccc(Cl)c2)cc1OC (stereo not drawn) | inactive
COc1ccccc1CCC(=O)OCC(=O)Nc1ccc(C)c(S(=O)(=O)N2CCCCC2)c1 | inconclusive: 13.1 µM [inhibitor, partial curve, poor fit]
Cc1cc(C(=O)N2CCN(S(=O)(=O)c3ccc(F)c(Cl)c3)CC2)c(C)o1 | inconclusive: 18.5 µM [inhibitor, single point]
Cc1nnc(SCC(=O)c2c(N)n(C)c(=O)n(C)c2=O)[nH]c1=O | inconclusive: 14.7 µM [inhibitor, single point]
COc1ccccc1N1CCN(C/C(O)=C(\C#N)c2nc(-c3ccccc3)cs2)CC1 | inconclusive: 10.4 µM [inhibitor, single point]
COc1cccc(CNC(=O)COC(=O)c2cc([N+](=O)[O-])ccc2N2CCCC2)c1 | inconclusive: 13.1 µM [inhibitor, single point]
O=Cc1ccc(N2CCCC2)o1 | inactive
COc1cccc(CN2CCNC(=O)C2CC(=O)NCCc2ccccn2)c1 (stereo not drawn) | inconclusive: 11.7 µM [inhibitor, partial curve, poor fit]
CCOC(=O)C1=C(C)Nc2ncnn2C1c1c[nH]c2ccccc12 (stereo not drawn) | inconclusive: 1.17 µM [inhibitor, partial curve, poor fit]
O=c1cc(Nc2ccc3c(c2)OCCO3)[nH]c(=O)n1-c1ccc(Br)cc1 | inactive
NC(=O)C1CCN(C(=O)COc2cccc3ccccc23)CC1 | inactive
CCNC(=O)CC(=O)Nc1ccccc1C(=O)O | inconclusive: 4.15 µM [inhibitor, single point]
COc1ccc(NC(=O)C2CCCC2)cn1 | inactive
CC1CCN(C(=O)C(=O)c2cn(CC(=O)N3CCCCCC3)c3ccccc23)CC1 | inconclusive: 18.5 µM [inhibitor, single point]
O=C(Nn1c(-c2ccncc2)nc2ccccc2c1=O)c1ccc([N+](=O)[O-])cc1Cl | inconclusive: 1.31 µM [inhibitor, single point]
COc1cccc(NC(=S)N2CCN(c3ccc([N+](=O)[O-])cc3)CC2)c1 | inconclusive: 18.5 µM [inhibitor, single point]
Cn1c(SCC(=O)Nc2nccs2)nnc1-c1cccnc1 | inactive
Cc1ccccc1NC(=O)Cn1cnc2c(oc3nc4c(cc32)COC(C)(C)C4)c1=O | inactive
O=[N+]([O-])c1ccccc1NCCNS(=O)(=O)c1ccc(Cl)cc1 | inconclusive: 13.1 µM [inhibitor, single point]
COc1ccc(OCC(O)Cn2c(=N)n(CCN3CCCCC3)c3ccccc32)cc1 (stereo not drawn) | inconclusive: 0.294 µM [inhibitor, full curve, poor fit]
Nc1nc(CN2CCN(C(c3ccccc3)c3ccccc3)CC2)nc(Nc2ccccc2)n1 | active: 4.65 µM

SMILES | Potency
CCCC1(C(=O)OC)NC(c2cccc(F)c2)C2C(=O)N(CC)C(=O)C21 (stereo not drawn) | inactive
CC(=O)c1ccc(N2CCN(C(=O)C3CCN(S(=O)(=O)c4ccc5c(c4)CC(C)N5C(=O)C4CC4)CC3)CC2)cc1 (stereo not drawn) | inconclusive: 18.5 µM [inhibitor, single point]
CC(C)CC(C)NC(=O)c1ccc(C(F)(F)F)cc1 (stereo not drawn) | inactive
CCCCN(CCCC)S(=O)(=O)c1ccc(NC(=O)CN2CCOCC2)cc1 | inconclusive: 18.5 µM [inhibitor, single point]
CCc1cc(C(=O)COc2ccccc2F)c(O)cc1O | inconclusive: 13.1 µM [inhibitor, single point]
CC1=C(C(=O)Nc2cccnc2)C(c2ccccn2)n2nnnc2N1 (stereo not drawn) | inconclusive: 11.7 µM [inhibitor, single point]
Cc1nn(Cc2ccccc2)c(Cl)c1C(=O)NC1CCCc2ccccc21 (stereo not drawn) | inconclusive: 18.5 µM [inhibitor, single point]
COC(=O)c1ccc(C(=O)O)nc1 | inconclusive: 0.465 µM [inhibitor, partial curve, poor fit]
Cc1ccc(S(=O)(=O)Nc2ccccc2N(C)S(=O)(=O)c2ccc(C)cc2)cc1 | inconclusive: 10.4 µM [inhibitor, single point]
Cc1ccc(NC(=O)CN(C)Cc2cc(=O)n3ccsc3n2)cc1 | inactive
Cc1ccccc1CSc1nc2[nH]ncc2c(=O)[nH]1 | inconclusive: 1.47 µM [inhibitor, partial curve, poor fit]
O=C(OCc1ccccc1)N1CCc2ccccc21 | inconclusive: 18.5 µM [inhibitor, single point]
CCO[C@H]1OC(C(=O)NC2CC2)=C[C@@H](C)[C@@H]1CCCO | inactive
Cc1cnc(C(=O)N2CCCC(C(=O)c3cccc(OC(C)C)c3)C2)cn1 (stereo not drawn) | inconclusive: 11.7 µM [inhibitor, partial curve, poor fit]
CCn1cc(C(=O)OCC(=O)c2ccccc2)c(=O)c2ccc(C)nc21 | inconclusive: 18.5 µM [inhibitor, single point]
Cc1ccc(S(=O)(=O)c2nc(-c3ccccc3F)oc2N2CC(C)OC(C)C2)cc1 (stereo not drawn) | inconclusive: 2.08 µM [inhibitor, partial curve, poor fit]
Cc1ccc(N(CCC#N)C(=O)CCl)cc1C | inconclusive: 18.5 µM [inhibitor, single point]
COc1cccc(CN2C(=O)NC3(CCCCCC3)C2=O)c1 | inactive
Cc1c(-c2cccs2)[n+](=O)c2c(n1[O-])CCCCC2 | active: 10.4 µM
CSc1nnc(C2CCN(CC(=O)Nc3ccccc3N3CCOCC3)CC2)n1C | inconclusive: 3.7 µM [inhibitor, partial curve, poor fit]
CCOC(=O)c1[nH]c2ccc(Br)cc2c1NC(=O)CCN1CCC(C)CC1 | inconclusive: 4.15 µM [inhibitor, full curve, poor fit]
Cc1cc(C)c(C)c(S(=O)(=O)NCC(=O)NCc2ccco2)c1C | inconclusive: 11.7 µM [inhibitor, single point]
COc1ccc(NC(=O)C2CCCN2C(=O)Nc2ccccc2)cc1OC (stereo not drawn) | inconclusive: 6.57 µM [inhibitor, partial curve, poor fit]

16 neighbouring entries out of the list so far:
SMILES | Potency
COc1cccc(NC(=S)N2CCN(c3ccc([N+](=O)[O-])cc3)CC2)c1 | inconclusive: 18.5 µM [inhibitor, single point]
Cn1c(SCC(=O)Nc2nccs2)nnc1-c1cccnc1 | inactive
Cc1ccccc1NC(=O)Cn1cnc2c(oc3nc4c(cc32)COC(C)(C)C4)c1=O | inactive
O=[N+]([O-])c1ccccc1NCCNS(=O)(=O)c1ccc(Cl)cc1 | inconclusive: 13.1 µM [inhibitor, single point]
COc1ccc(OCC(O)Cn2c(=N)n(CCN3CCCCC3)c3ccccc32)cc1 (stereo not drawn) | inconclusive: 0.294 µM [inhibitor, full curve, poor fit]
Nc1nc(CN2CCN(C(c3ccccc3)c3ccccc3)CC2)nc(Nc2ccccc2)n1 | active: 4.65 µM
CCCC1(C(=O)OC)NC(c2cccc(F)c2)C2C(=O)N(CC)C(=O)C21 (stereo not drawn) | inactive
CC(=O)c1ccc(N2CCN(C(=O)C3CCN(S(=O)(=O)c4ccc5c(c4)CC(C)N5C(=O)C4CC4)CC3)CC2)cc1 (stereo not drawn) | inconclusive: 18.5 µM [inhibitor, single point]
CC(C)CC(C)NC(=O)c1ccc(C(F)(F)F)cc1 (stereo not drawn) | inactive
CCCCN(CCCC)S(=O)(=O)c1ccc(NC(=O)CN2CCOCC2)cc1 | inconclusive: 18.5 µM [inhibitor, single point]
CCc1cc(C(=O)COc2ccccc2F)c(O)cc1O | inconclusive: 13.1 µM [inhibitor, single point]
CC1=C(C(=O)Nc2cccnc2)C(c2ccccn2)n2nnnc2N1 (stereo not drawn) | inconclusive: 11.7 µM [inhibitor, single point]
Cc1nn(Cc2ccccc2)c(Cl)c1C(=O)NC1CCCc2ccccc21 (stereo not drawn) | inconclusive: 18.5 µM [inhibitor, single point]
COC(=O)c1ccc(C(=O)O)nc1 | inconclusive: 0.465 µM [inhibitor, partial curve, poor fit]
Cc1ccc(S(=O)(=O)Nc2ccccc2N(C)S(=O)(=O)c2ccc(C)cc2)cc1 | inconclusive: 10.4 µM [inhibitor, single point]
Cc1ccc(NC(=O)CN(C)Cc2cc(=O)n3ccsc3n2)cc1 | inactive

Remaining list, next part

SMILES | Potency
CCOC(=O)c1sc2nc(C)nc(NCCc3ccccn3)c2c1C | inconclusive: 11.7 µM [inhibitor, partial curve, poor fit]
CCCn1c(=O)c(C(=O)NCc2ccco2)c(O)c2ccccc21 | inconclusive: 6.57 µM [inhibitor, partial curve]
CCOc1ccc(CNC(=O)C2CCCN(S(C)(=O)=O)C2)cc1OC (stereo not drawn) | inconclusive: 4.15 µM [inhibitor, single point]
CC1(OC(=O)CCc2ccccc2)C(=O)C=C2C=C(c3ccc(C#N)cc3)N(c3ccccc3)C=C2C1=O (stereo not drawn) | inactive
CCOC(=O)c1ccc2c(c1)nc(COc1ccc3ccccc3c1)n2CC | inconclusive: 11.7 µM [inhibitor, single point]
O=C1c2ccccc2C(=O)N1c1ccc(Cl)cn1 | inconclusive: 4.15 µM [inhibitor, partial curve, poor fit]
CCOC(=O)C1=NN(c2cccc(Cl)c2)C2=NC(C)=C(C(=O)OC)C(c3cccs3)N12 (stereo not drawn) | inactive
CCOC(=O)C1=C(c2ccccc2)NC(=O)NC1c1ccc(N(C)C)cc1 (stereo not drawn) | inconclusive: 18.5 µM [inhibitor, single point]
C/C(=N\NC(=O)c1ccc(CSc2nncn2C)cc1)c1ccc(C#N)cc1 | inconclusive: 7.38 µM [inhibitor, partial curve, poor fit]
Cc1ccc2sc(N(CCCN(C)C)C(=O)c3ccc(Br)s3)nc2c1C | inconclusive: 8.28 µM [inhibitor, partial curve, poor fit]
CS(=O)(=O)Nc1ccc(C(=O)Nc2ccccc2Cl)cc1 | inconclusive: 9.28 µM [inhibitor, single point]
CCOc1cc(/C=N\NC(=O)Cn2nc([N+](=O)[O-])cc2C)ccc1OCc1cccc2ccccc12 | inconclusive: 18.5 µM [inhibitor, single point]
O=C(c1ccco1)N1CCn2cccc2C1c1ccccc1 (stereo not drawn) | inactive
Cc1cc(C(=O)OCC(=O)c2cccc([N+](=O)[O-])c2)c2cccc(C)c2n1 | active: 0.415 µM
Cc1ccc(S(=O)(=O)N2CCC(=O)N(C(COC(=O)Nc3ccccc3)Cc3ccccc3)CC2)cc1 (stereo not drawn) | active: 14.7 µM
O=C1C=C(c2ccc(OC(F)(F)F)cc2)C[C@@H](c2ccc(Cl)cc2)C1 | inactive
NC(=O)CSc1nnnn1-c1ccccc1Cl | inconclusive: 11.7 µM [inhibitor, single point]
O=[N+]([O-])c1ccc(OCCCCN2CCCCC2)cc1 | inconclusive: 18.5 µM [inhibitor, single point]
O=C(NCCN1CCN(C(=O)c2cccs2)CC1)C(=O)Nc1ccc(Br)cc1 | inconclusive: 16.5 µM [inhibitor, single point]
COc1ccccc1CC(=O)Nc1ccc([N+](=O)[O-])cc1OC | inconclusive: 18.5 µM [inhibitor, single point]
COc1ccc(Oc2cc(C)c3cccc(C)c3n2)cc1 | inconclusive: 18.5 µM [inhibitor, single point]
CCOc1ccc2nc(NC(=O)C34CC5CC(CC(NC(C)=O)(C5)C3)C4)sc2c1 | inconclusive: 10.4 µM [inhibitor, single point]
